Experimental data from PMC5437200, “Ionic liquids for the passive sampling of sulfonamides from water—applicability and selectivity study” (Analytical and Bioanalytical Chemistry, 2017).

assay: PASSIL passive sampling from ultrapure water with [P666-14][N(CN)2] and PES membranes; settings: 14 days, initial 2 μg mL−1, 20 °C, stirred

| Compound | drop in concentration in the donor solution |
| --- | --- |
| Nc1ccc(S(=O)(=O)Nc2ccccn2)cc1 [SPD, sulfapyridine] | negligible |
| Nc1ccc(S(=O)(=O)Nc2nccs2)cc1 [STZ, sulfathiazole] | ~50% |
| Cc1ccnc(NS(=O)(=O)c2ccc(N)cc2)n1 [SMZ, sulfamerazine] | negligible |

assay: PASSIL passive sampling from secondary effluent; settings: effluent samples, 7 days, [P666-14][N(CN)2], PES

| Compound | sampling rate (Rs) |
| --- | --- |
| Nc1ccc(S(=O)(=O)Nc2ccc(Cl)nn2)cc1 [SCP, sulfachloropyridazine] | 0.59 L/day |
| Cc1nnc(NS(=O)(=O)c2ccc(N)cc2)s1 [SMT, sulfamethiazole] | 0.8 L/day |
| Nc1ccc(S(=O)(=O)Nc2nccs2)cc1 [STZ, sulfathiazole] | 0.8 L/day |
| COc1cc(NS(=O)(=O)c2ccc(N)cc2)nc(OC)n1 [SDX, sulfadimethoxine] | 0.45 L/day |
